This assay has as its target T1, FKBP52 (Hsp56) (UniProt Q02790).
T1 sequence (looked up): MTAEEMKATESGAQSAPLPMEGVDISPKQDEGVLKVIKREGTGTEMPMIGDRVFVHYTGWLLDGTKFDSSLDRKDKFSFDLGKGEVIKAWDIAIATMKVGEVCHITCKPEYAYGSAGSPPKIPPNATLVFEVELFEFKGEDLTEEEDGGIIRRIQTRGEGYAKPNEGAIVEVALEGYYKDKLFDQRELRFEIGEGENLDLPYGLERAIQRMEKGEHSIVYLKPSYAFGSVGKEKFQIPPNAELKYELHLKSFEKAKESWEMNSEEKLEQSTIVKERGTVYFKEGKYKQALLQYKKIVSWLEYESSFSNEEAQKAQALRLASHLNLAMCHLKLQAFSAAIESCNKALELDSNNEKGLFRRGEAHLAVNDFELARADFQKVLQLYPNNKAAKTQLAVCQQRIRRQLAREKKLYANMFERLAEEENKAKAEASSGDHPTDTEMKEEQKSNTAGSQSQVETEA
Briefly: discussion of LNCaP cell data; method not given.

The chains behind the UniProt entries cited, without tags or fusion partners.
UniProt P10275: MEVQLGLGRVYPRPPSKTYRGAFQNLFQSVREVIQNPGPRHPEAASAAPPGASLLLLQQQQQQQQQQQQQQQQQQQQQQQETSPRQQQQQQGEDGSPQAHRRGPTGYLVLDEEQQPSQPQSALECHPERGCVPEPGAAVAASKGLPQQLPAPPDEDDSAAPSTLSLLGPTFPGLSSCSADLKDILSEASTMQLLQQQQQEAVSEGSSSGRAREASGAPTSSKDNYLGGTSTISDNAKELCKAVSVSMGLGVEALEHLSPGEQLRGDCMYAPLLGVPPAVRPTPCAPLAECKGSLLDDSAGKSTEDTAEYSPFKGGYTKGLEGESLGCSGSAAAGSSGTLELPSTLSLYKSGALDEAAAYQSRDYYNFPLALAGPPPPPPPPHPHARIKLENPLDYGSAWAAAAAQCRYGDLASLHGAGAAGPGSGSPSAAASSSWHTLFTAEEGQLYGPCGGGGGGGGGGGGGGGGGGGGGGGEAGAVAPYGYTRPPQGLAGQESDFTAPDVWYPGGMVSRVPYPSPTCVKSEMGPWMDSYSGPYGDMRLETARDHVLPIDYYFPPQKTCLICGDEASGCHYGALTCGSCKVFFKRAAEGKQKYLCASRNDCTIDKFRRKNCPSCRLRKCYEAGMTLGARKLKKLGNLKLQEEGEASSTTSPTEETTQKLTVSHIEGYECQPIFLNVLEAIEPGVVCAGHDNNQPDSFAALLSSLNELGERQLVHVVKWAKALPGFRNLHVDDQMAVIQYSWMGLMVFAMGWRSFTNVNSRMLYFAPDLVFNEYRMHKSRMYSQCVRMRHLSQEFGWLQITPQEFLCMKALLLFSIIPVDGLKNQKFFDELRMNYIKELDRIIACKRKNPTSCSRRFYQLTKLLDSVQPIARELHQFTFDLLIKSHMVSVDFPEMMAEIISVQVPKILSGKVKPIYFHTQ

These are yes or no findings as the source states them, for the method shown. Some results given as binding are weak or reduced against the parent protein; the word gives no strength.

With “androgen receptor (from UniProt P10275 1-920)”, the binding result was “binds”.
